Results are given as percent effect.
The controls that fix the scale are not given in the record; negative values are as filed.
This is an unselected part of the compounds tested.
Two or more numbers in one place are separate tests of the same structure; such repeats can differ widely.

By UniProt entry, the sequences of proteins in these tests, tags left out.
UniProt P9WPC5, whole entry: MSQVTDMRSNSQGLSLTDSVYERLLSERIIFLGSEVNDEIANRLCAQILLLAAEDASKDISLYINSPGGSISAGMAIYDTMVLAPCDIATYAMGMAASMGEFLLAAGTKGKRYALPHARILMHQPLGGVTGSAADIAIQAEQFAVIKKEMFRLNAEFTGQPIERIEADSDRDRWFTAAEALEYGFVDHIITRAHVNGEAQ
UniProt P9WPC3, whole entry partner: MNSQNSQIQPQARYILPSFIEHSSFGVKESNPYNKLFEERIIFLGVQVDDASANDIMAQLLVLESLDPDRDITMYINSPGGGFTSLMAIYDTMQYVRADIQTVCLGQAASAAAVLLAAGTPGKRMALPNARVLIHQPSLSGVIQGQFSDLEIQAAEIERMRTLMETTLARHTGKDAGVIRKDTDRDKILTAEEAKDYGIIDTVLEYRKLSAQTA
UniProt P9WNZ1, whole entry: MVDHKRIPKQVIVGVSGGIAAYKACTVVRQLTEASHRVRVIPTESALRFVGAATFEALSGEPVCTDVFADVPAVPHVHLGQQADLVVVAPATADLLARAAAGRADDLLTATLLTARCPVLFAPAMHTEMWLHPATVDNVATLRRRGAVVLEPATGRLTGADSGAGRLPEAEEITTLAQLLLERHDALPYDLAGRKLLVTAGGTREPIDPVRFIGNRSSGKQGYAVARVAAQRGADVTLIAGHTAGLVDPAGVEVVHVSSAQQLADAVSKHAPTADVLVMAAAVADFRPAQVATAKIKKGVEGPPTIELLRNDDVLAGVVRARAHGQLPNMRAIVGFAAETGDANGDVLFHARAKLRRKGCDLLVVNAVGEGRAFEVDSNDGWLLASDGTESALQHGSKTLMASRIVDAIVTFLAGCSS

ClpP1P2: 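Protease assay of ClpP1P2, read by the AMC dye that it sets free. Target: ClpP1P2, Mycobacterium tuberculosis (UniProt P9WPC5 and UniProt P9WPC3). Concentration: 50 µM. Higher reads as stronger inhibition, judged from the few compounds that gave an IC50. Most other retested compounds had strongly negative values. Size under these conditions: about 69,000 compounds, about 10 of them at 50% or above in at least one test.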
CoaBC: 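Enzyme assay of CoaBC with a phosphate dye (Biomol Green) read at 650 nm. Target: Coenzyme A biosynthesis protein CoaBC, Mycobacterium tuberculosis (UniProt P9WNZ1). Concentration: 30 µM. Higher reads as stronger inhibition, judged from the few compounds that gave an IC50. Most strong results did not repeat in a second test. Size under these conditions: about 67,000 compounds, about 40 of them at 50% or above in at least one test.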
Toxoplasma: 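Assay of Toxoplasma gondii numbers, read through their beta-galactosidase reporter with a colour substrate. Tested at 10 µM. The record gives no direction; the compounds picked for IC50 retests had high values, so higher reads as fewer parasites. Size under these conditions: about 67,000 compounds, about 260 of them at 50% or above in at least one test.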

* CC(=O)c1cccc(OCCCC(=O)N(C)CCc2ccncc2)c1 | ClpP1P2: -7.961%; CoaBC: -4.904%; Toxoplasma: 15.35%
* C=Cc1ccc(CN2CCCC3(CNC(=O)c4ccccc4O3)C2)cc1 (stereo not drawn) | ClpP1P2: 4.537%; CoaBC: -2.451%; Toxoplasma: -3.065%
* CSCC(CCO)Nc1cccc(C(F)(F)F)n1 (stereo not drawn) | ClpP1P2: -10.43%; CoaBC: -10.04%; Toxoplasma: -2.875%
* O=c1c(NCCOCCO)c(N2CCN(c3ccccc3)CC2)c1=O | ClpP1P2: -3.422%; CoaBC: 1.013%; Toxoplasma: -1.252%
* O=C(O)C(F)(F)F.[H][C@@]12CCN(Cc3nccs3)[C@]1([H])CC[C@H](C(=O)NCc1ccco1)O2 | Toxoplasma: 9.102%
* O=C1C[C@H]2CC[C@@H](CN1)N2C1CCOCC1 | ClpP1P2: 5.151%; CoaBC: -10.4%
* COC(=O)N1CCc2ccccc2C1C(=O)NCc1ccncc1 (stereo not drawn) | ClpP1P2: -2.858%; CoaBC: -12.47%; Toxoplasma: -3.99%
* CCOCc1ccccc1NC(=O)NCC(C)(O)c1cccs1 (stereo not drawn) | ClpP1P2: -0.8705%; CoaBC: 7.78%; Toxoplasma: 9.661%
* Cc1nc2c(NC(CC(C)(C)C)c3cccnc3)ncnc2o1 (stereo not drawn) | ClpP1P2: -25%; CoaBC: 2.112%; Toxoplasma: -40.58%
* CC(=O)N1CCCN(C(=O)NCCNc2ccccn2)CC1 | ClpP1P2: -17.4%; CoaBC: 5.604%; Toxoplasma: 8.014%
* CC(C)CC(=O)NCCCn1cncn1 | ClpP1P2: 17.56%; CoaBC: 1.946%; Toxoplasma: 0.4545%
* CC(=O)Nc1cc(C(=O)Nc2cc(CC(C)(C)C)nn2C)ccc1F | ClpP1P2: 1.718%; CoaBC: 0.2439%; Toxoplasma: 1.082%
* O=C(C1COCCO1)N1CCN(Cc2ccc3c(c2)CCO3)CC1 (stereo not drawn) | ClpP1P2: 4.726%; CoaBC: 4.508%; Toxoplasma: -2.825%
* Cc1nc(O)cc(C2(C)CCCNC2)n1 (stereo not drawn) | ClpP1P2: -5.24%; CoaBC: 30.75% and 13.92%
* CSC(C)(C)CNC(=O)NC(c1nnc2n1CCC2)C(C)C (stereo not drawn) | ClpP1P2: -12.3%; CoaBC: 1.015%; Toxoplasma: 19.03%
* Cc1noc(C)c1CNC(=O)Nc1ccc(N2CCOC(C)C2)cc1 (stereo not drawn) | ClpP1P2: 2.895%; CoaBC: 9.709%; Toxoplasma: -8.825%
* Cc1noc(C)c1CCC(=O)NCC1(O)CCCN(c2ccccn2)C1 (stereo not drawn) | ClpP1P2: -6.69%; CoaBC: -7.485%; Toxoplasma: -0.2817%
* CCN1CC2(CCN(C(=O)C3CSC(C)(C)C(=O)N3)CC2)CC1=O (stereo not drawn) | ClpP1P2: -1.971%; Toxoplasma: -5.933%

Once more, the final 2:

{"compound": "Cc1noc(C)c1CCC(=O)NCC1(O)CCCN(c2ccccn2)C1", "stereo": "stereo not drawn", "ClpP1P2": -6.69, "CoaBC": -7.485, "Toxoplasma": -0.2817}
{"compound": "CCN1CC2(CCN(C(=O)C3CSC(C)(C)C(=O)N3)CC2)CC1=O", "stereo": "stereo not drawn", "ClpP1P2": -1.971, "Toxoplasma": -5.933}

From ChEMBL document CHEMBL3988442, “University of Dundee, Small-Polar-MMV Screening Library” (2021).